These are yes or no findings as the source states them, for the method shown. Some results given as binding are weak or reduced against the parent protein; the word gives no strength.
Molecular target: NCAPD2 (human (endogenous in Jurkat)) (UniProt Q15021)
Experiment: SEC; SEC-PCP-SILAC: Jurkat cytoplasmic lysate (concentrated on 100,000 Da cutoff) on two BioSep4000 columns, 50 mM KCl, 50 mM NaCH3COO, pH 7.2, 8°C, fractions analysed by LC-MS/MS; interactions assigned from similarity of elution profiles; cells untreated or treated 4 h with anti-Fas IgM

Chains of the proteins cited; added tags and fusions are not shown.
UniProt Q15021: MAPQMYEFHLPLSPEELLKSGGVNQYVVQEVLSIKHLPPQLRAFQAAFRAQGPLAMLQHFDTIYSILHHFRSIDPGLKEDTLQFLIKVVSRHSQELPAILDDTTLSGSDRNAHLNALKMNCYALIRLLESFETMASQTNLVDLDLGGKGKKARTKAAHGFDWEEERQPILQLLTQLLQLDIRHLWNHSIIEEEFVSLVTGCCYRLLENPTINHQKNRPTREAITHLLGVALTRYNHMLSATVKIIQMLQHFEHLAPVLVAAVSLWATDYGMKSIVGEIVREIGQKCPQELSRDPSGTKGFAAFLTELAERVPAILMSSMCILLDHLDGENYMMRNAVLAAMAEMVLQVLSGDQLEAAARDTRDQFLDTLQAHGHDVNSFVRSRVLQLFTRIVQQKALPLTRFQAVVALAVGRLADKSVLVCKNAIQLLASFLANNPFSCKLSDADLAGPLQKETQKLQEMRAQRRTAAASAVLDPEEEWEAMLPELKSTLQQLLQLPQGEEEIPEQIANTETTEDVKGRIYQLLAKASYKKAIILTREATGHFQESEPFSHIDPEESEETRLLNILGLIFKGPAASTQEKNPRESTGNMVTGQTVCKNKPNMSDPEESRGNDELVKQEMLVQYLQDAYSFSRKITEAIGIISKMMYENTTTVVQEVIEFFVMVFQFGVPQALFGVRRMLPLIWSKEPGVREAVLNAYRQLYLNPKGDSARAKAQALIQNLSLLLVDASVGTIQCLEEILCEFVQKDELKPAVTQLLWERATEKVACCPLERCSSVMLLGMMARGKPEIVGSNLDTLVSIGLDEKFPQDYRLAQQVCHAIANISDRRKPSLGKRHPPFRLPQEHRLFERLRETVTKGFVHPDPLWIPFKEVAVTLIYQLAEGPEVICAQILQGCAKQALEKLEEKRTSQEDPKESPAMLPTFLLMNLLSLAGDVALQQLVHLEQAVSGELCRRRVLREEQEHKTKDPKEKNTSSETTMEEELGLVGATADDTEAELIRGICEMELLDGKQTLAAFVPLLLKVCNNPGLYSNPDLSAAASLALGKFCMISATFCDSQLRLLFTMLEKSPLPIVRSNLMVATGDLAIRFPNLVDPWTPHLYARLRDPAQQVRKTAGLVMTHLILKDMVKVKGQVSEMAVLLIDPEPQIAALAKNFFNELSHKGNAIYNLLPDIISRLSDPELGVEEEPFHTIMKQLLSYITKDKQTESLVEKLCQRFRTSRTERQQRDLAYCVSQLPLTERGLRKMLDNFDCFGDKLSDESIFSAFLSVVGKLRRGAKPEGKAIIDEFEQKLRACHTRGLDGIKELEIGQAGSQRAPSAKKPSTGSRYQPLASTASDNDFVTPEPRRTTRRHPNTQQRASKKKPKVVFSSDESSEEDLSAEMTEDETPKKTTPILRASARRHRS
UniProt Q15003: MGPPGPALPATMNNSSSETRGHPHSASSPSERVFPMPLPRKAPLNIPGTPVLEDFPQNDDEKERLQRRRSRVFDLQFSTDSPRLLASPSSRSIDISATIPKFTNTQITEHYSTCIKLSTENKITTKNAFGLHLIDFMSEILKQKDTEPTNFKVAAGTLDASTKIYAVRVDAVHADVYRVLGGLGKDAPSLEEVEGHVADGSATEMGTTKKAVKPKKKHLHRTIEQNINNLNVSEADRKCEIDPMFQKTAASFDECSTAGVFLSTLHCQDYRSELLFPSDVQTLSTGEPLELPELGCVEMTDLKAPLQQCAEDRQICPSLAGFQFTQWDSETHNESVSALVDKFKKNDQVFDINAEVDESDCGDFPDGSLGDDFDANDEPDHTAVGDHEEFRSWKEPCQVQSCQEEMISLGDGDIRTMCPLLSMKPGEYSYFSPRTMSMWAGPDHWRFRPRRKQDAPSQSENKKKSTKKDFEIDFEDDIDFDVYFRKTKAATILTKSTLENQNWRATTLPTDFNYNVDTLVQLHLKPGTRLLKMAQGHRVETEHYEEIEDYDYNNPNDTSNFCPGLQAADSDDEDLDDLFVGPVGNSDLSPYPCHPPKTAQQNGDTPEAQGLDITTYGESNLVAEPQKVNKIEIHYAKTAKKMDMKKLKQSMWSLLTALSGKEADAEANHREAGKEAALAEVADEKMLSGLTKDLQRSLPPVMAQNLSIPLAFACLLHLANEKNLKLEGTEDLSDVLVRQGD

Q: For NCAPH (from UniProt Q15003 1-741), which binding is on record?
A: binds
